The text below walks through data of article PMC7819943, “Rice protein-binding microarrays: a tool to detect cis-acting elements near promoter regions in rice”.

By UniProt entry, the sequences of proteins in these tests, tags left out.
UniProt Q0JBA9, entry or part of it: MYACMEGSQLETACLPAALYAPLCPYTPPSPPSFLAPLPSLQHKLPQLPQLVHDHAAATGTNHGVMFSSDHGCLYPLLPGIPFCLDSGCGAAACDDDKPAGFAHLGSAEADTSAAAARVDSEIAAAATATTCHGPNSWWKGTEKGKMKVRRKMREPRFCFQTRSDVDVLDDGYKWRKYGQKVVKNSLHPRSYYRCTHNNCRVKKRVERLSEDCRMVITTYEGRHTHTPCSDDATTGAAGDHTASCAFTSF

Some of the results follow.

The target of this assay is OsWRKY34 (Oryza sativa, UniProt Q0JBA9 1-250). Put plainly: protein-binding microarray (RPBM); PBS, 2% BSA, 51.3 ng/ul salmon testes DNA, 50 uM zinc acetate, 200 nM TF, 25 C, 1 h; high values mean tight binding. The note with it: protein: recombinant; tags: N-terminal polyhistidine and DsRed monomer fusion (pET32a); label: CyDye5-dUTP incorporated in the synthesized complementary strand; 3' TTTTT single-stranded linker to array surface; dsDNA, one strand shown. In a few lines: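 The binding signal is fluorescence intensity per array feature (arbitrary units). Readings came from an Axon 4000B scanner after a washed, 2% BSA-blocked, double-stranded custom Agilent array had been incubated for 1 h at 25 °C with 200 nM protein and 50 µM zinc acetate. The protein was a Ni–NTA-purified transcription factor fused N-terminally to polyhistidine and DsRed, expressed in E. coli BL21-CodonPlus.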
Consider “CTCTCTCTGTTTCGGCCTCTCATACTCACTCCTCGGCTTCCGGAGTCACCTAGTGCAG”, for which the binding signal is 11100 fluorescence intensity (a.u.).

For “TCCAACTTATTTGTCTGCTTGGGAGTTATCTGATGGCAAACGGAGTCACCTAGTGCAG”, the binding signal is 8060 fluorescence intensity (a.u.).

Regarding “GCTCACTTGCTCGCTGTCTTGCTCTTCGTCTTTCCTCCTCCGGAGTCACCTAGTGCAG”, the binding signal was 10900 fluorescence intensity (a.u.).

With “CCCCATTCACCAATCCTGAACTTTATGCTATTTGTTATTTCGGAGTCACCTAGTGCAG”, the binding signal was 12400 fluorescence intensity (a.u.).

On to “TATTGACTATGTTTTTTTTTCCCGATTAATATGATAATTTCGGAGTCACCTAGTGCAG”, for which the binding signal was 8370 fluorescence intensity (a.u.).

With “TCGCCTTGCGGGCCCCACGGTCGCCGCCGGAGACCGGCCTCGGAGTCACCTAGTGCAG”, the binding signal is 8200 fluorescence intensity (a.u.).

On to “CCATCTGCTTGGCTTTCTTATATAGGCCGTGTTTAGATTCCGGAGTCACCTAGTGCAG”, for which the binding signal was 12900 fluorescence intensity (a.u.).

With “CCGCCACCGAGGCACGGCTCTCGAACCTTCCCACTGCTTCCGGAGTCACCTAGTGCAG”, the binding signal is 8510 fluorescence intensity (a.u.).

Turning to “AATAGATCACCACATTCAATGCAGTTCTTCCGATTAAATTCGGAGTCACCTAGTGCAG”, the binding signal is 9730 fluorescence intensity (a.u.).

On to “CGGATTTTTTTTTACAGTTTACAGGGGATCTATTTGGGTTCGGAGTCACCTAGTGCAG”, for which the binding signal is 9770 fluorescence intensity (a.u.).

For “TCTGGCATCCATTCTTCAAATATCTTTTTTGGGGTTTCCACGGAGTCACCTAGTGCAG”, the binding signal was 9330 fluorescence intensity (a.u.).

With “GGTAAAGATTCTTTTGTGATCTGCCTTCTGCTACTTAAGTCGGAGTCACCTAGTGCAG”, the binding signal was 8420 fluorescence intensity (a.u.).

Take “CCCTCGCCAGCCCTGCATCCTTTGCTTCCTTAACGTGTGACGGAGTCACCTAGTGCAG”: the binding signal was 8790 fluorescence intensity (a.u.).

For “TACTACTACTATACATCTGCATCTACTACTATTCTACTCTCGGAGTCACCTAGTGCAG”, the binding signal was 11200 fluorescence intensity (a.u.).

Consider “AAAGCATAGTCTGTAGTACTAGTTCTCTACCGTCACGATCCGGAGTCACCTAGTGCAG”, for which the binding signal was 8430 fluorescence intensity (a.u.).

Consider “ACCTCCGTTTCAGTTTATAAGTTGTTTTGACTTTGGTAAACGGAGTCACCTAGTGCAG”, for which the binding signal is 8840 fluorescence intensity (a.u.).

As to “CTCCGTTTTTTAATAGATGACGCCGTTGACTTTTTCTCACCGGAGTCACCTAGTGCAG”, the binding signal was 27800 fluorescence intensity (a.u.).

With “CCCCTTTGCTTTGCTCGTGCTCTGCTCACATTTGTTTCTCCGGAGTCACCTAGTGCAG”, the binding signal was 8050 fluorescence intensity (a.u.).

For the sequence “TTGGTACCAATTTGAACATACACATAGTTGGAGGGGTTTTCGGAGTCACCTAGTGCAG”, the binding signal was 8150 fluorescence intensity (a.u.).

For the sequence “TTCCGACCACCCCGTCCTCACCACCGCCGCCGCCGCTCCCCGGAGTCACCTAGTGCAG”, the binding signal is 8290 fluorescence intensity (a.u.).

Regarding “GGGGTGTTTGGTTGAGGGGTGGGTGGGATGGATTGGTCCTCGGAGTCACCTAGTGCAG”, the binding signal is 32300 fluorescence intensity (a.u.).

“CGTCTCGGCGAATTTTACGGCTTTTGTCATTTCAACAGAACGGAGTCACCTAGTGCAG”: the binding signal is 8050 fluorescence intensity (a.u.).

For the sequence “CGGTTCAACTTTCGTCTTTTGAGATCCCTAGTGTGGCAATCGGAGTCACCTAGTGCAG”, the binding signal is 8140 fluorescence intensity (a.u.).

Regarding “CTCTCGACCTTTCGGTCTCTTGATCCCCATTTGTCTCAATCGGAGTCACCTAGTGCAG”, the binding signal was 9000 fluorescence intensity (a.u.).

Turning to “ACCGACTAGCAGGCAGCACGTCATCGCTGGCCTTCATCACCGGAGTCACCTAGTGCAG”, the binding signal was 8120 fluorescence intensity (a.u.).

In the case of “TGCCATCGCGCGCTTTTGCCCACCGCTTCTCTCCTCCTCCCGGAGTCACCTAGTGCAG”, the binding signal is 8660 fluorescence intensity (a.u.).

Consider “ATCACCTTAATATAATTGATTGAGATCAATAAGGTTTTTACGGAGTCACCTAGTGCAG”, for which the binding signal was 10300 fluorescence intensity (a.u.).

“CCCGTCAATCCAGCCATGACAACCTGATCCGTCCACGGTGCGGAGTCACCTAGTGCAG”: the binding signal is 8190 fluorescence intensity (a.u.).

On to “ATAGATGTTTCTTGCTGTAGGTATTTGGTTTCCATTCAGCCGGAGTCACCTAGTGCAG”, for which the binding signal is 8260 fluorescence intensity (a.u.).

Take “TTTCAACTATGCCTAATACTCTTGCTGGGTCGGTTGCAACCGGAGTCACCTAGTGCAG”: the binding signal was 10200 fluorescence intensity (a.u.).

In the case of “CCACTTCTTCTCATCCACCCACTGTAGCCTCGAGACCACACGGAGTCACCTAGTGCAG”, the binding signal is 8430 fluorescence intensity (a.u.).

In the case of “GAAGCGAAGCAGGCGACCATTTTGTTTTTTTCCTTTTAATCGGAGTCACCTAGTGCAG”, the binding signal is 8820 fluorescence intensity (a.u.).

As for “ATAATTATACTCTCGTTTTGCATATCTTCTAACTTTTTTTCGGAGTCACCTAGTGCAG”, the binding signal was 9780 fluorescence intensity (a.u.).

“AGTGATATGTTTTCAGTTCAGACCTGAGCTGAGTTTCCTTCGGAGTCACCTAGTGCAG”: the binding signal is 8770 fluorescence intensity (a.u.).

“GCAGAATTTTTCCCAGAGGCGTTTCTCATTTTCTAGACAGCGGAGTCACCTAGTGCAG”: the binding signal is 9960 fluorescence intensity (a.u.).

In the case of “TTGTTAATCCAACCTGCCTCTATGCCTATGCGTATGTTCTCGGAGTCACCTAGTGCAG”, the binding signal was 9180 fluorescence intensity (a.u.).

Turning to “TGTGTACTATGCTGTTTGGAGTATGCGCTGAATCTGATTACGGAGTCACCTAGTGCAG”, the binding signal was 8420 fluorescence intensity (a.u.).

For the sequence “ATTTTGCAAATGTCAATTGTACATGAACTCTATCTGCAATCGGAGTCACCTAGTGCAG”, the binding signal was 8260 fluorescence intensity (a.u.).

Regarding “TGTATATGTTTTATAGAGAGCACCTTACTTTACCATTTTCCGGAGTCACCTAGTGCAG”, the binding signal was 8400 fluorescence intensity (a.u.).

As for “TGCCGCTGCTCCGCCCGCAAGCCGTGCTTGCCTGCCACCGCGGAGTCACCTAGTGCAG”, the binding signal is 8480 fluorescence intensity (a.u.).

For the sequence “TCGGTGGGTGGGTTGAGGATCGTGACAGTTACCGAGCATGCGGAGTCACCTAGTGCAG”, the binding signal is 11800 fluorescence intensity (a.u.).

With “GTCTCCATCGCTTCCTTGTTGGCCTGTTCCTGCGAGCTTCCGGAGTCACCTAGTGCAG”, the binding signal was 10400 fluorescence intensity (a.u.).
